Results on 61 molecules are retold here after PubChem BioAssay AID2685 (National Center for Advancing Translational Sciences (NCATS), 2010).

The term AC50 denotes the concentration at which the activity in the assay is half-maximal.

Each structure is given as a SMILES string. “And” between values parts separate entries of the source, which are not always exact repeats. Equal entries are not always repeated. The list shows a part of the results. These are further read-outs of the screen, such as a control signal, another cell line or another target. No call is given for them. Most of these compounds were active or inconclusive in the main read-out, so they are no random draw. Words in brackets tell the shape of the fitted curve; partial curves, single points and poor fits give uncertain potencies.

The assay is described as follows: qHTS Assay for Lipid Storage Modulators in Drosophila S3 Cells.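 On cell number change: cells counted by Cell Tracker Red CMTPX staining in the red channel.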 To be noted: BODIPY lipid droplet fluorescence, 18-24 h; for cell number change: measured here: cell count max response, cells fed with added oleic acid. In short, it runs like this: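 Drosophila S3 cells got compounds at several concentrations plus oleic acid (400 uM solution). Laser-scanning cytometry with 488 nm excitation read lipid droplets at 500-530 nm and cells at 575-640 nm. Percent activity was relative to 20 uM Triacsin C.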

Setting [1] is: measured here: lipid fluorescence (Fed channel) AC50, cells fed with added oleic acid.
Setting [2] is: measured here: cell number channel AC50, cells fed with added oleic acid.

`O=[N+]([O-])c1cc(/C=N/Nc2nc3ccccc3[nH]2)c(O)cc1O`: the cell number change is -15.8%. The AC50 under setting [1] is 29.1 µM [falling, single point]. In the case of `COc1ccccc1NS(=O)(=O)N(C)C`, the cell number change was -72.1%. Moreover, the AC50 under setting [2] is 23.1 µM [falling, partial curve]. As to `CC(C)CCNC(=O)C(c1ccc(O)cc1)N(C(=O)C1COc2ccccc2O1)c1cccc(O)c1` (configuration not stated), the cell number change was -30%. Further, under setting [1], the AC50 is 10.3 µM [falling, partial curve, poor fit]. Turning to `COc1ccc(N2CCN(C(=O)c3cccc(Br)c3)CC2)c([N+](=O)[O-])c1`, the cell number change is -10.5%. Further, the AC50 under setting [2] was 0.731 µM [falling, single point]. Further, the AC50 under setting [1] was 0.517 µM [falling, full curve]. `CC(=O)Nc1ccc(C(=O)CSc2nnnn2C2CCCC2)cc1`: the cell number change was determined as 29%. In addition, the AC50 under setting [1] is 14.6 µM [rising, single point]. With `O=[N+]([O-])c1ccc(Nc2nc(Cl)nc(NCCO)n2)cc1`, the cell number change was -47.3%. Besides, the half-maximal activity concentration (AC50) under setting [2] is 29.1 µM [falling, partial curve, poor fit]. As to `CCCCn1c(N)c(N(CC)C(=O)/C=C/c2ccco2)c(=O)[nH]c1=O`, the cell number change was -4.31%. With `COc1ccc2cc(-c3ccccc3)c(=O)oc2c1`, the cell number change was 20.9%. Take `Cc1ccccc1CN1C(=O)c2ccccc2S(=O)c2ccc(C(=O)NCCCN3CCOCC3)cc21` (configuration not stated): the cell number change came to 10.4%. Besides, the AC50 under setting [2] was 0.058 µM [rising, full curve, poor fit]. For the same molecule, the AC50 under setting [1] is 29.1 µM [falling, single point]. In the case of `COc1cccc(OCC(=O)N2CCC3(CC2)CC(=O)c2ccccc2O3)c1`, the cell number change was -7.87%. Also, the AC50 under setting [1] is 9.2 µM [falling, partial curve]. With `COc1ccc(CN(CC(=O)NC2CCCC2)C(=O)CCC(=O)Nc2nc(C)cs2)cc1`, the AC50 under setting [1] is 0.259 µM [falling, partial curve, poor fit]. As to `CCOC(=O)C1C(=O)Nc2nc3ccccc3n2C1C(C)C` (configuration not stated), the cell number change is -4.13%. Moreover, the AC50 under setting [1] is 4.61 µM [falling, full curve, poor fit]. Consider `O=C(CN(C(=O)CNC(=O)c1cccs1)c1cccc(F)c1)NC1CCCCC1`, for which the AC50 under setting [1] is 6.51 µM [rising, partial curve]. `CCN(CC)CCNC(=O)c1ccc(NC(=O)c2cc(-c3ccco3)nc3ccccc23)cc1`: the cell number change was determined as 14.1%. Further, the AC50 under setting [1] is 2.31 µM [rising, single point]. As to `CC(=O)Nc1cccc(NC(=O)CS(=O)(=O)c2cn(CC(=O)N(C(C)C)C(C)C)c3ccccc23)c1`, the cell number change is 5.2%. On to `C[C@@H](C(=O)NCCc1ccc(F)cc1)N1C(=O)N2CCc3c([nH]c4ccccc34)[C@@]2(C)C1=O`, for which the cell number change is -24.9%. Besides, the AC50 under setting [2] was 3.66 µM [falling, full curve, poor fit]. In addition, under setting [1], the AC50 was 0.291 µM [falling, full curve]. As for `Cn1cccc1-c1cc(C(=O)N/N=C/c2ccccc2Cl)[nH]n1`, the cell number change was 0.612%. Further, the AC50 under setting [1] was 1.03 µM [rising, single point]. For `CCOC(=O)N1CCC(NCCNC(=O)c2ccccc2)CC1`, the cell number change is -5.2% and 5.55%. Also, the AC50 under setting [1] is 7.31 µM [falling, full curve]. With `Cc1ccc(NC(=S)c2ccc3ccccc3n2)c(C)c1`, the cell number change came to 21.7%. For the same molecule, the AC50 under setting [1] is 5.17 µM [falling, full curve]. On to `O=C(NNc1ncccc1-n1cccc1)c1ccc(Cl)cc1`, for which the cell number change is -1.32%. Besides, the concentration at half-maximal activity (AC50) under setting [2] was 0.13 µM [falling, full curve, poor fit].

As to `Cc1ccc(NC(=O)/C(C#N)=C/c2ccccc2C(F)(F)F)cc1`, the cell number change was -2.73%. Besides, under setting [1], the AC50 was 0.82 µM [falling, partial curve, poor fit]. On to `O=C(Nc1ccc(Cl)c(Cl)c1)Nc1ccccc1O`, for which the cell number change was -46.9%. The AC50 under setting [2] was 29.1 µM [falling, single point]. Also, the AC50 under setting [1] is 29.1 µM [falling, single point]. With `COC(=O)c1cnn(-c2ccccc2)c1N`, the cell number change was -0.64%. For `O=C(CCNC(=O)c1ccco1)NCCc1ccc(Cl)cc1`, the cell number change is 21.1%. For the molecule `Cc1ccccc1NC(=O)NC1(C(=O)N2CCN(C)CC2)CCCCC1`, the cell number change turned out to be 16.4%. The AC50 under setting [1] is 6.51 µM [falling, single point].

Turning to `Cc1ccc(C(=O)OCc2nc(N)nc(Nc3ccccc3C)n2)cc1`, the cell number change was determined as 29.2%. Further, the AC50 under setting [1] was 3.66 µM [rising, partial curve, poor fit].

In the case of `Cc1ccc(NC(=O)C2CCN(S(=O)(=O)c3ccc4c(c3)NC(=O)C(C)S4)CC2)cc1Cl` (configuration not stated), the cell number change amounted to 39.9%. Moreover, the AC50 under setting [2] is 29.1 µM [rising, single point]. The AC50 under setting [1] was 18.4 µM [falling, partial curve]. With `CC(=O)c1cccc(N(C(=O)c2csnn2)C(C(=O)NC2CCCC2)c2ccccc2)c1` (configuration not stated), the cell number change was -9.52%. Moreover, under setting [1], the AC50 is 29.1 µM [falling, single point]. Turning to `O=C(CSc1nnnn1-c1ccccc1)NC(=O)Cc1ccccc1`, the cell number change was 5.82%. Under setting [2], the AC50 was 0.731 µM [falling, single point]. Take `C=CCn1c(CNC(=O)c2ccccc2F)nnc1SCc1nc2ccccc2c(=O)[nH]1`: the cell number change was -8.85%. For `COCc1cc(C)nc2sc(C(=O)Nc3ccccc3Br)c(N)c12`, the cell number change was -7.72%. In addition, the AC50 under setting [1] was 16.4 µM [falling, partial curve]. With `CCOc1ccccc1CNC(=O)CCCC(=O)n1nc(C)c2ccccc21`, the cell number change is -11.6%. For the molecule `CCn1c(SCC(=O)NCCc2ccccc2)nnc1-c1ccco1`, the cell number change turned out to be 0.0444%.

`O=C(COc1ccc(Br)cc1)Nc1ccc(S(=O)(=O)Nc2ccccn2)cc1`: the AC50 under setting [1] was 29.1 µM [rising, single point]. In the case of `Cc1ccc(C)c(N2CCN(c3ccc4cc(S(=O)(=O)N5CCCCC5)ccc4n3)CC2)c1`, the cell number change is 119%. Besides, the AC50 under setting [2] was 16.4 µM [rising, partial curve]. The AC50 under setting [1] was 14.6 µM [rising, partial curve].

Regarding `O=c1cc(/C=C/c2c(F)cccc2Cl)[nH]c2ccccc12`, the cell number change is 31.5%. Further, under setting [2], the AC50 is 29.1 µM [rising, single point]. The AC50 under setting [1] was 2.06 µM [falling, partial curve, poor fit]. Consider `COc1ccc(S(=O)(=O)N2CCN(CCc3ccccc3)CC2)c(OC)c1`, for which, under setting [1], the AC50 is 0.58 µM [rising, single point]. Consider `COc1ccc(C2=NOC(CNC(N)=S)C2)cc1` (configuration not stated), for which the cell number change stood at 4.94%. The AC50 under setting [1] is 0.116 µM [rising, full curve, poor fit]. For the molecule `COc1ccc(C(=O)OCCCOC(=O)c2ccc(OC)cc2OC)c(OC)c1`, the cell number change is -5.95%.

`CCC(=O)Nc1cc(-c2nn(CC(=O)N3CCCCC3)c(=O)c3ccccc23)ccc1N1CCOCC1`: the cell number change was determined as 48.3%. The AC50 under setting [2] is 18.4 µM [rising, single point]. Turning to `Cc1c(/C=N/NC(=O)c2cccnc2)c2ccccn2c1C(=O)c1ccc(F)cc1`, the cell number change worked out at 16.7%. Moreover, the AC50 under setting [1] was 1.16 µM [rising, partial curve]. Turning to `COc1ccc(OC)c(/C=N/NC(=O)CCCC(=O)Nc2cccc(Br)c2)c1`, the AC50 under setting [1] is 29.1 µM [falling, single point]. Regarding `Cc1csc2nc(NC(=O)c3ccccc3)sc(=O)c12`, the cell number change was determined as 30.4%. Moreover, the AC50 under setting [2] was 14.6 µM [rising, single point]. Regarding `CC(=O)c1ccc(N2CCC(c3cc(-c4ccc(Cl)cc4Cl)n[nH]3)CC2)c([N+](=O)[O-])c1`, the cell number change is -25.3%. For the molecule `COc1ccccc1OCC(=O)OCc1cc(-c2ccco2)on1`, the cell number change came to 12.1%. Besides, under setting [2], the AC50 is 0.651 µM [falling, single point]. Besides, the AC50 under setting [1] was 0.731 µM [falling, single point]. Regarding `COC(=O)c1nn(-c2c(C)n(C)n(-c3ccccc3)c2=O)cc1O`, the AC50 under setting [1] is 1.84 µM [falling, single point].

Consider `O=c1cc(CSc2nnnn2-c2ccccc2)nc(Nc2ccc(F)cc2)[nH]1`, for which the cell number change was -0.482%. In addition, under setting [1], the AC50 is 1.3 µM [falling, partial curve].

For the molecule `COc1ccc(Cc2nc(-c3ccc(-n4cccc4)cc3)no2)cc1OC`, the AC50 is 1.64 µM [rising, partial curve] under setting [2] and 2.06 µM [rising, partial curve] under setting [1].

As to `CCn1c(=NC(=O)c2ccco2)sc2cccc(F)c21`, under setting [2], the AC50 is 0.184 µM [rising, full curve, poor fit]. On to `CC(=O)c1ccc(OC(=O)c2cccs2)cc1`, for which the cell number change is -35.2%. Moreover, under setting [2], the AC50 was 0.92 µM [falling, full curve]. Besides, the AC50 under setting [1] was 1.3 µM [falling, full curve]. Consider `CCCNC(=O)c1c(C)cc(=O)oc1C`, for which the cell number change was determined as 74.8%. Regarding `COc1ccc(-c2nnc(SCC(C)C)o2)cc1`, the AC50 under setting [1] is 5.17 µM [rising, partial curve]. Regarding `COc1ccc(C2CC(c3ccc(C)cc3)=NN2C(=O)CCC(=O)O)cc1OC` (configuration not stated), the cell number change is -1.02%. In addition, under setting [1], the AC50 was 0.146 µM [rising, full curve, poor fit]. `NC(=O)CC(NC(=O)Cc1ccc(Br)cc1)c1ccc(NC2CC3CCC2C3)c([N+](=O)[O-])c1` (configuration not stated): the cell number change is -28.2%. In the case of `CC(=O)Oc1c(C(=O)c2nnc(C)o2)c(=O)n(C)c2ccccc12`, the cell number change was -1.98%. Moreover, the AC50 under setting [1] was 0.0058 µM [falling, full curve, poor fit]. Take `COc1ccc(C)cc1NC(=O)/C=C/c1ccc(OC)c(S(=O)(=O)N2CCOCC2)c1`: the cell number change is -10.5%. The AC50 under setting [1] is 7.31 µM [falling, partial curve]. In the case of `NS(=O)(=O)c1ccc(CCNCC(=O)N2CCC(Cc3ccccc3)CC2)cc1`, the cell number change came out at 39.6%. Besides, the AC50 under setting [2] was 6.51 µM [rising, partial curve]. Also, under setting [1], the AC50 is 6.51 µM [falling, single point]. As for `O=C(COc1ccccc1Cl)N1N=C(c2cccs2)CC1c1ccco1` (configuration not stated), the cell number change was 6.77%. The AC50 under setting [1] was 0.0731 µM [falling, partial curve, poor fit]. Turning to `COc1ccc(NC(=O)c2ccccc2OCc2c(C)noc2C)cc1OC`, the cell number change worked out at 12.7%. Under setting [1], the AC50 is 29.1 µM [rising, single point]. In the case of `CC(Oc1ccccc1Cl)C(=O)Nc1ccc(S(=O)(=O)N2CCCC2)cc1` (configuration not stated), the cell number change worked out at 545%. Under setting [2], the AC50 was 23.1 µM [rising, partial curve]. Take `Cc1nc2scc(-c3ccccc3)c2c(=O)n1/N=C/c1ccco1`: the cell number change is -9.21%. In addition, the AC50 under setting [1] is 4.11 µM [rising, partial curve].
